This is one part of the list. Small differences around the control level are noise.
Compound: CN[C@@H]1C[C@H]2O[C@@](C)([C@@H]1OC)n1c3ccccc3c3c4c(c5c6ccccc6n2c5c31)C(=O)NC4 [staurosporine]
Assay: log2 fold change of tryptic peptide abundance, ligand vs vehicle (limited proteolysis) (log2 ratio); higher = more trypsin-susceptible (destabilized)
Conditions: ligand concentration: 20 uM; sample: mouse liver crude lysate; replicate design: treated separately

Chains of the proteins cited; added tags and fusions are not shown. Lines headed by an entry give the natural chain unless they say otherwise; changes in a name come on top.
UniProt Q8BWQ1: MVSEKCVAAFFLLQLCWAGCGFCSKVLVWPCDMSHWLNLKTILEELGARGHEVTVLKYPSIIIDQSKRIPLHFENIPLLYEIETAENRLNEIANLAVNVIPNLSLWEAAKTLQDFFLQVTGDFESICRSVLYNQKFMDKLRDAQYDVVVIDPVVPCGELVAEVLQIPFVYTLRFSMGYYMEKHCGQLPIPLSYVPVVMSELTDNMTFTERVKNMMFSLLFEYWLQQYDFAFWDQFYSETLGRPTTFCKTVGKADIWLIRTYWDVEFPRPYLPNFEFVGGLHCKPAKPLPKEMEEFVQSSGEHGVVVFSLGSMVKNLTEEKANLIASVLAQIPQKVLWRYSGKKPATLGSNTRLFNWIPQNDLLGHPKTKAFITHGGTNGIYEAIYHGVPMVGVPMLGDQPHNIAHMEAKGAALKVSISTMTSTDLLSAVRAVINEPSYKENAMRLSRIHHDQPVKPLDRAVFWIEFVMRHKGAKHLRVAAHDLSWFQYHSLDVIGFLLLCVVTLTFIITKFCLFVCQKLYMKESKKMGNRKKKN
UniProt Q8BZ20: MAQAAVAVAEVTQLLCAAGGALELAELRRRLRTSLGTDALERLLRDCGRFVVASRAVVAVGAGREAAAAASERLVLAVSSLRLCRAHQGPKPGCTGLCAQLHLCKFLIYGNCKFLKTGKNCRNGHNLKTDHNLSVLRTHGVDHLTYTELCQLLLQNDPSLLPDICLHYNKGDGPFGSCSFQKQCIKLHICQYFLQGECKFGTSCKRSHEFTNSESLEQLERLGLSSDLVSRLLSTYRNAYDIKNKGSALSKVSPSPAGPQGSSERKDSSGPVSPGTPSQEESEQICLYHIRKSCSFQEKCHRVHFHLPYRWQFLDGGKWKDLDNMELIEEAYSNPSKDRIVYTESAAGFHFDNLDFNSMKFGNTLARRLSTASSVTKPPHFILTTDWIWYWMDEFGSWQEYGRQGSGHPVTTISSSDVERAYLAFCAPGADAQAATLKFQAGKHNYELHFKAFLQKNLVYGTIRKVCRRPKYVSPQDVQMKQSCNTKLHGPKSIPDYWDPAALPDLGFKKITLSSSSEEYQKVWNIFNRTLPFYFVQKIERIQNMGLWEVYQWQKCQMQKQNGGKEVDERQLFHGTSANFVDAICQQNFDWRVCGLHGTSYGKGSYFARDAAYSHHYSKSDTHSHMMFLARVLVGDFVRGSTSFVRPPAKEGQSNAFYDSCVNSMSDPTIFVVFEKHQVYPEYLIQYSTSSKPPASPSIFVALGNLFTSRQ
UniProt Q8C7R4: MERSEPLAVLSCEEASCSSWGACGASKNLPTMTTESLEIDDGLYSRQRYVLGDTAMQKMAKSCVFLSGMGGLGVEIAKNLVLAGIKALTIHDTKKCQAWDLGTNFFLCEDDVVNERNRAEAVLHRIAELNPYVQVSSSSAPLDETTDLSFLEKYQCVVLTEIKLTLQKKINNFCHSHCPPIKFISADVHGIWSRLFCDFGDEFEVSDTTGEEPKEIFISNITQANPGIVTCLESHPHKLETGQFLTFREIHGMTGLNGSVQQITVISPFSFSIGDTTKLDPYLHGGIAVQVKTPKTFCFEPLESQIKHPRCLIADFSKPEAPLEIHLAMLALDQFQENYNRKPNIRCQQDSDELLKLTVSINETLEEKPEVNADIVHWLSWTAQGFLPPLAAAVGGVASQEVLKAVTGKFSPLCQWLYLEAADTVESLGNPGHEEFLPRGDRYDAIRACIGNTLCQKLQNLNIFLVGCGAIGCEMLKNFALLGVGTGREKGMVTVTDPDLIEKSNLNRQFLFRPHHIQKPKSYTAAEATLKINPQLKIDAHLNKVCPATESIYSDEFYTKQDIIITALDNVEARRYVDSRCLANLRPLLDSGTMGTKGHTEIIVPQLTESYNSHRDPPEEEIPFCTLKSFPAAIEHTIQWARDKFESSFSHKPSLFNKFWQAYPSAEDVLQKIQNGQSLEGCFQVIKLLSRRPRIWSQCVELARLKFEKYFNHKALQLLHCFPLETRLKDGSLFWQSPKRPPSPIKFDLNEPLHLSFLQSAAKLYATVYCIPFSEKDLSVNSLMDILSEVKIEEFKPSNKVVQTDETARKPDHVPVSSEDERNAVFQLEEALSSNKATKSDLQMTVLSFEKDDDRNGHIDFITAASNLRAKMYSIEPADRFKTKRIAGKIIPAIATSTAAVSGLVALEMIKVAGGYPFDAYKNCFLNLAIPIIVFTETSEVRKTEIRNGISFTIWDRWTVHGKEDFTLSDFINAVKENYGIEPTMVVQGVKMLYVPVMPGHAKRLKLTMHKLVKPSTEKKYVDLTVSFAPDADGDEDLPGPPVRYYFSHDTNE
UniProt Q8C650: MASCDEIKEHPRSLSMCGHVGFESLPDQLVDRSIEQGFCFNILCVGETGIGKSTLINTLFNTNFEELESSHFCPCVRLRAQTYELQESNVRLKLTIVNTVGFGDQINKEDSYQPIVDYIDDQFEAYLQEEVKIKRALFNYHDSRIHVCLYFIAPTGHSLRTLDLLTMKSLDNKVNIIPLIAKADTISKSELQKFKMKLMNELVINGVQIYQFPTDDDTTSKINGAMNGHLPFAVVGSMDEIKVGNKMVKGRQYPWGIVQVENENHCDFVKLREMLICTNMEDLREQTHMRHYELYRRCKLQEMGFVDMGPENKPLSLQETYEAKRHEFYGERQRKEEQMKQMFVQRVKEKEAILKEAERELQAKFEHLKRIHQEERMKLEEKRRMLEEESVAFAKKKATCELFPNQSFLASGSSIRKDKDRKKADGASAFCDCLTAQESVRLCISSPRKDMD

Target | log2 fold change
UniProt Q8BWQ1 (peptide sequence: ADIWLIR, peptide start residue: 253) | -0.673
UniProt Q8BZ20 (peptide sequence: TSLGTDALER, peptide start residue: 33) | -0.161
UniProt Q8C7R4 (peptide sequence: IWSQCVELAR, peptide start residue: 695) | 0.299
UniProt Q8C650 (peptide sequence: HEFYGER, peptide start residue: 326) | -0.119

— the supplement of paper PMC12819154, “High-throughput peptide-centric local stability assay extends protein–ligand identification to membrane proteins, tissues and bacteria” (Nature Structural & Molecular Biology, 2025)
